No constants are given. Whether binding was seen depends on the method and setting. Binding seen in cells or lysates may run through a third protein. Some entries that bind do so weakly or less than the wild type.
Target: BRD2 (mouse (endogenous in CH12F3-2A)) (UniProt Q7JJ13)
Assay: co-IP; nuclear extracts from CIT-activated CH12F3-2A cells immunoprecipitated with BRD2 or BRD4 antibodies or control rabbit IgG (Dynabeads Protein G); Western blot of the precipitated proteins

The chains behind the UniProt entries cited, without tags or fusion partners.
UniProt Q7JJ13: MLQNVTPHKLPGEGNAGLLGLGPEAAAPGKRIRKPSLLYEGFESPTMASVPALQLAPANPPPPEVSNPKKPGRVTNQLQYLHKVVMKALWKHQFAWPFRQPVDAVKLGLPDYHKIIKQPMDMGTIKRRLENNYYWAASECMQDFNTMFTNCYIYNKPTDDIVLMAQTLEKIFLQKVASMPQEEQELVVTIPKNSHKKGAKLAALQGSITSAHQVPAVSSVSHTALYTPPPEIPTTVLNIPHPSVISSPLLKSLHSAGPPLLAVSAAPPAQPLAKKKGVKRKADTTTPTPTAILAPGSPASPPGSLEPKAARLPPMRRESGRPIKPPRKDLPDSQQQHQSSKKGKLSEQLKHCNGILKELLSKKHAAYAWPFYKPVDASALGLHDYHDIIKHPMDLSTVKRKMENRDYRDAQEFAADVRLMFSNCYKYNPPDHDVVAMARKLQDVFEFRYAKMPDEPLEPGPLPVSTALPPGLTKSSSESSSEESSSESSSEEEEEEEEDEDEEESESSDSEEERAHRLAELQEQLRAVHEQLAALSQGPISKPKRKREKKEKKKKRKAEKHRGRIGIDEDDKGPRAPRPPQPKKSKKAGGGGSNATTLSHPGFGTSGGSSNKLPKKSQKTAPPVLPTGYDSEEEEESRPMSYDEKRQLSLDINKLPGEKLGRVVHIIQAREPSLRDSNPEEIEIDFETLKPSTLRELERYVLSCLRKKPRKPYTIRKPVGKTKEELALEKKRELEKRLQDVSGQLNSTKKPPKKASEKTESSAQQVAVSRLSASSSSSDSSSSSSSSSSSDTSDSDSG

B1: CTCF (protein, UniProt Q61164 1-736)
chain: MEGEAVEAIVEESETFIKGKERKTYQRRREGGQEEDACHLPQNQTDGGEVVQDVNSSVQMVMMEQLDPTLLQMKTEVMEGTVAPEAEAAVDDTQIITLQVVNMEEQPINIGELQLVQVPVPVTVPVATTSVEELQGAYENEVSKEGLAESEPMICHTLPLPEGFQVVKVGANGEVETLEQGELPPQEDSSWQKDPDYQPPAKKTKKTKKSKLRYTEEGKDVDVSVYDFEEEQQEGLLSEVNAEKVVGNMKPPKPTKIKKKGVKKTFQCELCSYTCPRRSNLDRHMKSHTDERPHKCHLCGRAFRTVTLLRNHLNTHTGTRPHKCPDCDMAFVTSGELVRHRRYKHTHEKPFKCSMCDYASVEVSKLKRHIRSHTGERPFQCSLCSYASRDTYKLKRHMRTHSGEKPYECYICHARFTQSGTMKMHILQKHTENVAKFHCPHCDTVIARKSDLGVHLRKQHSYIEQGKKCRYCDAVFHERYALIQHQKSHKNEKRFKCDQCDYACRQERHMIMHKRTHTGEKPYACSHCDKTFRQKQLLDMHFKRYHDPNFVPAAFVCSKCGKTFTRRNTMARHADNCAGPDGVEGENGGETKKSKRGRKRKMRSKKEDSSDSEENAEPDLDDNEEEEEPAVEIEPEPEPQPQPPPPPQPVAPAPPPAKKRRGRPPGRTNQPKQNQPTAIIQVEDQNTGAIENIIVEVKKEPDAEPAEGEEEEAQAATTDAPNGDLTPEMILSMMDR
How did the binding turn out when B1 was run?
Its binding is “binds”.

From article PMC11077081
